Consider 37 compounds from PubChem BioAssay AID445 (National Center for Advancing Translational Sciences (NCATS), 2006).

This test in a line: IkB Signaling. The note with it: ABC-DLBCL IkBa-CBG/CBR dual luciferase ratio (green luciferase fused to IkBa over red control in OCI-Ly3 lymphoma cells), 4 h. In outline: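 In this assay, an IκBα–CBG68 fusion accumulates when IKK-driven degradation is blocked; native CBR normalizes for cell number. OCI-Ly3 cells were treated 4 h with compound and doxycycline, then green and red light read after Chroma-Glo addition.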
Setting [1] is: measured here: control luc red channel unless noted.
Where [2] appears, read: measured here: IkB-luc green channel.
[3] abbreviates: measured here: control luc red channel.

This is one part of the list. The main result of the screen is listed elsewhere. These columns were measured beside it and carry no call. Compounds called inactive in the main read-out are mostly missing here. Words in brackets tell the shape of the fitted curve; partial curves, single points and poor fits give uncertain potencies.

`CCOC(=O)c1c(NC(=O)c2ccc(Br)cc2)sc2c1CCCC2`: the AC50 under setting [1] is 12.6 µM [falling, single point]. For `COc1cccc(N2CCN(Cc3nc(N)nc(N4CCCc5ccccc54)n3)CC2)c1`, the AC50 under setting [1] is 10 µM [falling, partial curve]. The same measure, in the same setting: the same measure for `C=C1C(=O)O[C@@H]2[C@H]3O[C@]3(C)CCC=C(C)CC[C@@H]12`: 6.31 µM [falling, full curve]. Still for that read-out and setting: in the case of `COc1ccc(C(=O)Nc2nnc(S(=O)(=O)N3CCCc4ccccc43)s2)cc1` it was 12.6 µM [falling, partial curve]. `Cc1ccc2nc(-c3cccc(NC(=O)c4ccc(Br)o4)c3)oc2c1`: the AC50 under setting [1] was 15.8 µM [falling, partial curve].

For `Cc1ccc(NC(=O)CSc2ccc3nnc(CCNS(=O)(=O)c4ccccc4)n3n2)cc1Cl`, the AC50 under setting [1] is 25.1 µM [falling, single point]. The same measure, in the same setting: the same measure for `Cc1ccccc1NC(=O)c1cccc2c(=O)c3c([nH]c12)CCCC3`: 0.0251 µM [rising, full curve, poor fit]; for `Cc1ccccc1NC(=O)CSc1nnc(COc2ccc(Cl)cc2)o1`: 5.01 µM [falling, partial curve]. On the same count and under the same terms, in the case of `CN(C)CCNC(=O)c1ccc2c(c1)N(Cc1ccccc1)C(=O)c1ccccc1S2(=O)=O` it was 25.1 µM [falling, single point]; in that of `CCCSc1ncc(Cl)c(C(=O)NCc2ccc(OC)cc2)n1`, 25.1 µM [falling, single point]; in that of `Cc1noc(C)c1CSc1cc(C)c2ccccc2n1`, 2.51 µM [rising, full curve]. On to `COc1cccc(-c2cc(C(=O)Nc3cc(OC)c(OC)c(OC)c3)no2)c1`, for which, under setting [1], the AC50 was 6.31 µM [falling, partial curve]. On the same count and under the same terms, the same measure for `O=C(Cn1cc(C(=O)c2ccncc2)c(=O)c2cc(F)ccc21)Nc1ccc(Cl)cc1`: 6.31 µM [falling, partial curve]. Regarding `O=C1c2[nH]nc(-c3ccccc3O)c2C(c2cccc(O)c2)N1Cc1ccncc1` (stereo not given), the AC50 under setting [1] is 31.6 µM [falling, partial curve].

As to `CC1=C(C#N)c2nc(N)c(C#N)c(C)c2/C1=C\c1ccccc1`, the AC50 was 3.98 µM [rising, single point] under setting [2] and 15.8 µM [falling, partial curve] under setting [3]. On to `Cc1ccc2c(c1)N(S(=O)(=O)c1cc(-c3onc(C)c3C)ccc1C)CCO2`, for which the AC50 under setting [1] is 31.6 µM [falling, single point].

For `COc1ccccc1CNC(=O)CCn1c(=O)c2ccccc2n(CC(=O)Nc2ccc(Br)cc2F)c1=O`, the AC50 is 25.1 µM [rising, single point] under setting [2] and 3.98 µM [falling, partial curve] under setting [3]. `Cc1ccc(O)c(NC(=O)c2noc3c2CCCC3)c1`: the AC50 under setting [1] is 25.1 µM [falling, single point].

As to `CCOC(=O)N1CCN(C(=O)CN(c2cccc(Cl)c2)S(=O)(=O)c2ccccc2)CC1`, the AC50 under setting [1] is 3.98 µM [falling, partial curve]. The same measure, in the same setting: in the case of `CCCN(C(=O)c1cc2c(=O)oc3ccccc3c2s1)c1cccc(Cl)c1` it was 5.01 µM [falling, full curve, poor fit]; in that of `CC[C@@H](C)[C@H]1O[C@]2(CC[C@@H]1C)C[C@@H]1C[C@H](C/C=C(/C)[C@H](O[C@@H]3C[C@H](OC)[C@H](O[C@@H]4C[C@H](OC)[C@@H](O)[C@H](C)O4)[C@H](C)O3)[C@@H](C)/C=C\C=C3CO[C@@H]4[C@H](O)C(C)=C[C@@H](C(=O)O1)[C@]34O)O2` (tested in a mixture with another compound), 10 µM [falling, full curve, poor fit]; in that of `COc1cccc(CNC(=O)c2cc(S(=O)(=O)N3CCCCCC3)cn2C)c1`, 5.01 µM [falling, partial curve]. In the case of `CCc1cccc(NS(=O)(=O)c2ccc3c(c2)n(C)c(=O)c(=O)n3C)c1`, the AC50 under setting [1] was 10 µM [falling, partial curve]. Take `CCC1CN(C(=O)Nc2cc(C)ccc2OC)c2cc(Cl)ccc2O1` (stereo not given): the AC50 under setting [1] was 31.6 µM [falling, single point]. On the same count and under the same terms, in the case of `COC(=O)c1ccc(NC(=O)CC2Nc3cc(C)c(C)cc3NC2=O)cc1` (stereo not given) it was 25.1 µM [falling, single point].

For the compound `COc1ccccc1NCc1cccn1-c1nnc(N2CCCCCC2)s1`, the AC50 under setting [1] was 25.1 µM [falling, partial curve]. Still for that read-out and setting: the same measure for `Cc1cc(C)n(-c2nc3ccccc3nc2Nc2ccc(Cl)c(Cl)c2)n1`: 25.1 µM [falling, single point].

As to `CCOc1ccc(S(=O)(=O)Nc2ccc3oc(C)c(C(=O)OC(C)C)c3c2)cc1`, the AC50 under setting [1] was 39.8 µM [falling, partial curve, poor fit].

Take `COc1cccc(-c2nnc(SCC(=O)N3CCCc4ccccc43)o2)c1`: under setting [1], the AC50 is 15.8 µM [falling, partial curve]. Turning to `Cc1cccc(OCC(=O)Nc2c(C(=O)N3CCN(c4ccccc4F)CC3)oc3ccccc23)c1`, under setting [1], the AC50 is 12.6 µM [falling, partial curve]. The same measure, in the same setting: in the case of `Cc1ccc2c(c1)-c1onc(C(=O)N3CCN(c4ccc(Cl)cc4)CC3)c1CO2` it was 1.26 µM [falling, partial curve]; in that of `CCOc1ccc(Cl)cc1/C=N/O`, 3.16 µM [rising, full curve]. For the compound `CNC(=O)c1c(NC(=O)c2nc3ccccc3s2)sc2c1CCC2`, the AC50 is, setting by setting: under setting [2], 12.6 µM [rising, partial curve]; under setting [3], 0.00631 µM [falling, full curve]. For the compound `Cn1c(=O)n(C)c2cc(C(=O)Nc3ccc4c(c3)OCO4)ccc21`, the AC50 under setting [1] was 10 µM [rising, partial curve] [measured here: IkB-luc green channel].

For the compound `Brc1ccc(-c2nc3ccccn3c2Nc2ccc3c(c2)OCCO3)o1`, the AC50 under setting [1] was 12.6 µM [falling, partial curve]. Regarding `CSC1=NC2(CCN(C(=O)NC3CCCCC3)CC2)N=C1c1ccc(C)cc1`, the AC50 under setting [1] is 15.8 µM [falling, partial curve].

Consider `O=C(C1COc2ccccc2O1)N1CCN(c2nc3ccc(F)cc3s2)CC1` (stereo not given), for which the AC50 under setting [1] is 25.1 µM [falling, partial curve].
